The record followed here is publication PMC9392749.

Chains of the proteins cited; added tags and fusions are not shown. Residues count along the entry.
UniProt Q06416: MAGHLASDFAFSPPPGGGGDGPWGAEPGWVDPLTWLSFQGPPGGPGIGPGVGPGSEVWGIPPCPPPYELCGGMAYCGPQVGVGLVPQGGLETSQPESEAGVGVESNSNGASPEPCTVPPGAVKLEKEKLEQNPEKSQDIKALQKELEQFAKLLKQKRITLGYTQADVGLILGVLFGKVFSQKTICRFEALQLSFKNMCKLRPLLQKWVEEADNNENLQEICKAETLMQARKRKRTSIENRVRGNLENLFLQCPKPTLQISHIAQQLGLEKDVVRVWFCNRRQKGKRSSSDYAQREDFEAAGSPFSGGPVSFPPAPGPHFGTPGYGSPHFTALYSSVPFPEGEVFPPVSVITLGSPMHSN
UniProt Q9H9Y6: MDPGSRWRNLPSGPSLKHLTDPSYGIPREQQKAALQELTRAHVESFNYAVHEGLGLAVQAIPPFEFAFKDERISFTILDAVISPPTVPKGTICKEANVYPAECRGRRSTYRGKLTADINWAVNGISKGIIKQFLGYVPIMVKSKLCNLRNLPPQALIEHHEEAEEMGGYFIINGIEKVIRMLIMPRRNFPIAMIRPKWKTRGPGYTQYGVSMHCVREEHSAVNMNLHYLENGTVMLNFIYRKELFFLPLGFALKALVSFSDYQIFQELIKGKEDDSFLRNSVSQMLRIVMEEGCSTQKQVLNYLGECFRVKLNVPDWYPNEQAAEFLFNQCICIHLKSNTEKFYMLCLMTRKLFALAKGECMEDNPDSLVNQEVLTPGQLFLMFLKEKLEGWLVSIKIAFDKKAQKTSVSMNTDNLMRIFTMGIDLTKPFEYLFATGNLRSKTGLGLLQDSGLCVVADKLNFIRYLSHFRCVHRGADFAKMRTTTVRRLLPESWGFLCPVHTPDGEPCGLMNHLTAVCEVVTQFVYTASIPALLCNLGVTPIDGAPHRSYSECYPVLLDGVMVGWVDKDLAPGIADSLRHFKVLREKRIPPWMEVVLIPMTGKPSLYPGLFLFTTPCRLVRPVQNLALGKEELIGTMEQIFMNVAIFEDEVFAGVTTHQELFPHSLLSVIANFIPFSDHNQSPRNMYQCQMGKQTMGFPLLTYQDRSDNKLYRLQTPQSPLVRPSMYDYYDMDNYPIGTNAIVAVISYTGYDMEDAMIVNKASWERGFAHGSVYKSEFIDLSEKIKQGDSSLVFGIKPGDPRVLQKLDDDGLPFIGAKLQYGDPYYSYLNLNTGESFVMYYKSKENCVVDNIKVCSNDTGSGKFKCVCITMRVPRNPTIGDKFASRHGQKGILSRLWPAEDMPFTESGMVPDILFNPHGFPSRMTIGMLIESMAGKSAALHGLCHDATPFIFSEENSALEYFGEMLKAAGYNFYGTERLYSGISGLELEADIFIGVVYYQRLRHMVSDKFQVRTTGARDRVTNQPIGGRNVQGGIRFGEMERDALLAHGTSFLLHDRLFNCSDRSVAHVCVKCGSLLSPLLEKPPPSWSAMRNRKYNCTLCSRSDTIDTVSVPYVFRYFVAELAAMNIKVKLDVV
UniProt O43156: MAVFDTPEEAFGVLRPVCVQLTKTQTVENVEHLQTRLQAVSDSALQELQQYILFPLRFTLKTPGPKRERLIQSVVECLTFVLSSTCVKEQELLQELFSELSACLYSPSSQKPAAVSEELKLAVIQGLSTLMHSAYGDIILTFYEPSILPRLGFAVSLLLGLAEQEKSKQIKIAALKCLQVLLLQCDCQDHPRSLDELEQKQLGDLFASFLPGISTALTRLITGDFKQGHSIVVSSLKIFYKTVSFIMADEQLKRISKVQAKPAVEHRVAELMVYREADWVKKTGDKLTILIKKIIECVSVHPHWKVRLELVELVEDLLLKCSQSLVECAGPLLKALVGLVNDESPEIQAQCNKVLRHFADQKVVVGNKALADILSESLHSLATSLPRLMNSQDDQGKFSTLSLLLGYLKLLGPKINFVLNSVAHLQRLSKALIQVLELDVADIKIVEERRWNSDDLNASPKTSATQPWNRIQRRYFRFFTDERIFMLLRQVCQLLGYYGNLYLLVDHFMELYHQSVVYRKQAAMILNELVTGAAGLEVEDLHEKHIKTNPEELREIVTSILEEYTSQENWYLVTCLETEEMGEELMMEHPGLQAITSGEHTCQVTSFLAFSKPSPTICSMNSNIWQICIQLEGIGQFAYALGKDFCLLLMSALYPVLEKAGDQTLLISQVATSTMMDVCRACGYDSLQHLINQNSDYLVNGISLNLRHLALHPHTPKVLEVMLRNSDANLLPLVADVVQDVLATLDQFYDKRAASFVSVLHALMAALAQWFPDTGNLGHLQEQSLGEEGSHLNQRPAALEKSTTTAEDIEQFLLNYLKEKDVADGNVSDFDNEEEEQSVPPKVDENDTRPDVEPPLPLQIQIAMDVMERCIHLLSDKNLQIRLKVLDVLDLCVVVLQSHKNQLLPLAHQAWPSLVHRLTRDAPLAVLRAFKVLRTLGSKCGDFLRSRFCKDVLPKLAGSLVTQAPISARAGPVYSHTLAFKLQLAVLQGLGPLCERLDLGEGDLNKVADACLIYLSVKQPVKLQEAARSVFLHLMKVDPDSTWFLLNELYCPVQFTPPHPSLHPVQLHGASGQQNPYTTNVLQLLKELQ
UniProt Q13671: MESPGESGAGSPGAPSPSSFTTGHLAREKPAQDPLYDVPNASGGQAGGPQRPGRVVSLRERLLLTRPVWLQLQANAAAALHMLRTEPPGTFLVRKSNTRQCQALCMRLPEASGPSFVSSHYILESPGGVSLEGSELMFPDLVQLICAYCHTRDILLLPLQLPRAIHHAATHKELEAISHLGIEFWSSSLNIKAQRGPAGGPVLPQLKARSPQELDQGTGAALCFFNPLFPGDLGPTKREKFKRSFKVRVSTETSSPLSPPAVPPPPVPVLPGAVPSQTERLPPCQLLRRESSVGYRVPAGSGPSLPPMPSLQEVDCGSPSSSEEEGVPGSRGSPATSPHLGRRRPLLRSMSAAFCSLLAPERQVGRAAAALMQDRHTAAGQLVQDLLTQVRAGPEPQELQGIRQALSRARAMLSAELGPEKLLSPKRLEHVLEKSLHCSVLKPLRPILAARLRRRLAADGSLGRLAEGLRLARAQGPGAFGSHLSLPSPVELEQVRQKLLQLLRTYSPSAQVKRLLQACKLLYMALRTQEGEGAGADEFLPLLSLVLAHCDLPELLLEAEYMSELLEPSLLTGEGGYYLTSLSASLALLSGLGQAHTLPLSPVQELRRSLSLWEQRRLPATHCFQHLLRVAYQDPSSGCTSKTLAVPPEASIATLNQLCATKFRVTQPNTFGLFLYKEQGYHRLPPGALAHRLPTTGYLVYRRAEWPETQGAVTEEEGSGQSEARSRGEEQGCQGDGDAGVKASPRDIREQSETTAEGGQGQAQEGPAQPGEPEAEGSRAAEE
UniProt O95602: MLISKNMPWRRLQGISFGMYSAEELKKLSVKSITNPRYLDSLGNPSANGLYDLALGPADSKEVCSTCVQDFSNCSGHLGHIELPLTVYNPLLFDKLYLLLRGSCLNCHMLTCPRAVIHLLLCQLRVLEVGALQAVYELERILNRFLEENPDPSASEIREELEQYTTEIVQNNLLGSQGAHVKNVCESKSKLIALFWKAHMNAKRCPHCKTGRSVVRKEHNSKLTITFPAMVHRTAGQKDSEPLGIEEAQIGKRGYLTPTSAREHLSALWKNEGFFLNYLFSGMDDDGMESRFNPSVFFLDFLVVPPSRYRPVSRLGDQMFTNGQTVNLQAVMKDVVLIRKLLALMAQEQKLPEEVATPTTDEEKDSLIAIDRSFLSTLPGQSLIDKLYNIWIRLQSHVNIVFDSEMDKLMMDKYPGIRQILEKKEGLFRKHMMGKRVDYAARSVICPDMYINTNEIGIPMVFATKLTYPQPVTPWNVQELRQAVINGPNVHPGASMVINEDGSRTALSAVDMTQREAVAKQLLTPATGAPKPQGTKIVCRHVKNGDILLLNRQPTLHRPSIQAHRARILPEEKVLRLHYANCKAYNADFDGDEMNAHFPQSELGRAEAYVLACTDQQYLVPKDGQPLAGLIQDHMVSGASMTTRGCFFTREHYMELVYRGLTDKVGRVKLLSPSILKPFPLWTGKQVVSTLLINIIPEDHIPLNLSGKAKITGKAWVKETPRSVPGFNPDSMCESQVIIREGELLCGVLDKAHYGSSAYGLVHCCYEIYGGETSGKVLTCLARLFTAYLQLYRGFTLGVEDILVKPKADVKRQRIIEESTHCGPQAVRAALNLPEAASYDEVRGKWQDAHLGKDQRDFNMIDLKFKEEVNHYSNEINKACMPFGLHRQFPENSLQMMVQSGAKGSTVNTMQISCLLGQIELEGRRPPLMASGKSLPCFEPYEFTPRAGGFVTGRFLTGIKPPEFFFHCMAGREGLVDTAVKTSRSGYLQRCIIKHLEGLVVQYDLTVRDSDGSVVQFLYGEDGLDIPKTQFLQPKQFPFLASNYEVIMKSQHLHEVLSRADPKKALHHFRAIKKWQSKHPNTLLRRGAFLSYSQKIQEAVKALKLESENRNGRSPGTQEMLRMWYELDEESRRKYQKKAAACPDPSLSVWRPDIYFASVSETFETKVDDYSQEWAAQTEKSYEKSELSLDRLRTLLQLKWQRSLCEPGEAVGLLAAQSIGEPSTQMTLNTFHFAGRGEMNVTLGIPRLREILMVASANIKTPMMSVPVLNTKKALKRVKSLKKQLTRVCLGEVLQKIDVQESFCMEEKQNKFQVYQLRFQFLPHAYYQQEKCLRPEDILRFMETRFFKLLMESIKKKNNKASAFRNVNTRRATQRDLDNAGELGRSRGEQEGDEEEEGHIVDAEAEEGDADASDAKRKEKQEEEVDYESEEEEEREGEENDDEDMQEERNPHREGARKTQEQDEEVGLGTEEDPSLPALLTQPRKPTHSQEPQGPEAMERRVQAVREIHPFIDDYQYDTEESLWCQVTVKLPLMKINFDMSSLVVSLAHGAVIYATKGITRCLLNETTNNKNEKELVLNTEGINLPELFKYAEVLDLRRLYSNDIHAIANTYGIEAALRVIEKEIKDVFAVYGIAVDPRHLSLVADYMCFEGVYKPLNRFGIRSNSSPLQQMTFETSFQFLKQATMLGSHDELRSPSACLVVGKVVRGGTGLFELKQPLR
UniProt Q04912, residues 25-1400: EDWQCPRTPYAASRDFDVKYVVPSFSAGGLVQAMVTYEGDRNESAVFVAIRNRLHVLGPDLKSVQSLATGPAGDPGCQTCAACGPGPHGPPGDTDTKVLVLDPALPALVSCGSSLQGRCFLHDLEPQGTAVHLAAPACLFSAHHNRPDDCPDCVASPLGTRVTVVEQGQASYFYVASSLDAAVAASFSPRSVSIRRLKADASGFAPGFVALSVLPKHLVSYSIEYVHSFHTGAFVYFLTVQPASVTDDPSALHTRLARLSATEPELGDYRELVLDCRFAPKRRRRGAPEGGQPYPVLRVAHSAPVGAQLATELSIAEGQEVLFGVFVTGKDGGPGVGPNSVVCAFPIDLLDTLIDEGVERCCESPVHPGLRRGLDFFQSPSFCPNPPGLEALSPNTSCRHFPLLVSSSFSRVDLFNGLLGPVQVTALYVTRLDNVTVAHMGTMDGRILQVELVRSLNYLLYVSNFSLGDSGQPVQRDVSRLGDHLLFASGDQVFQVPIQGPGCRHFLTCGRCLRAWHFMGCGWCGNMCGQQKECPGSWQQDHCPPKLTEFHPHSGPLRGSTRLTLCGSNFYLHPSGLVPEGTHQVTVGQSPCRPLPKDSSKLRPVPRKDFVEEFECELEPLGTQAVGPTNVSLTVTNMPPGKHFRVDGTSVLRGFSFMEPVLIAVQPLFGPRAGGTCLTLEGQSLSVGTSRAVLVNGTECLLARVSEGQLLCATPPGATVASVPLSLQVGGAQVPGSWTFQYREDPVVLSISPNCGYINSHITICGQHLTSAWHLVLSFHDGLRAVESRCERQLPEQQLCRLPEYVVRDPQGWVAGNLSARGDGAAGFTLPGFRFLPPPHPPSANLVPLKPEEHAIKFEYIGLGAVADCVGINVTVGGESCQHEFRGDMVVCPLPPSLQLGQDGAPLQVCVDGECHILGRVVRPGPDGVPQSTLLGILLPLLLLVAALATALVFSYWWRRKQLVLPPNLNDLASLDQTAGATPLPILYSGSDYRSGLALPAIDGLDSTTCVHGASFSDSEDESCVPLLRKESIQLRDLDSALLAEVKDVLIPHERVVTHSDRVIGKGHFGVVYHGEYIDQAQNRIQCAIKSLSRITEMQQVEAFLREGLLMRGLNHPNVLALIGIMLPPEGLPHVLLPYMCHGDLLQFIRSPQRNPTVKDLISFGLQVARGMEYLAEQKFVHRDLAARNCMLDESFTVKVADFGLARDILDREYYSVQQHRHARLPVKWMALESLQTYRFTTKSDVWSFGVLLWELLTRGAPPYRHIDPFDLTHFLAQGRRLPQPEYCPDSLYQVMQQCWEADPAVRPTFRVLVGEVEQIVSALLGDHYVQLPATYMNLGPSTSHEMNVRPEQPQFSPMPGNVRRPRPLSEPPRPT

Results are given in words; binding and its absence hold for the method and conditions named. In cells and extracts the contact can be indirect. These calls come from enrichment with a bait or labelling near it, and not all partners need be listed.

The target in this assay is HA-tagged POU5F1B (human) (UniProt Q06416). The assay can be described thus: affinity purification with mass spectrometry; HA-tagged POU5F1B (control: HA-GFP) overexpressed in LS1034 and HT29 cells; lysis in HNN buffer (0.5% NP40, 50 mM HEPES pH 7.5, 150 mM NaCl), lysate fixed with 3 mM DSP, benzonase; anti-HA agarose beads 2 h at 4 °C; elution with 0.2 M glycine pH 2.5; LC-MS/MS; hits: fold change over controls >5 and adjusted P < 0.01.

As to “POLR1B (from UniProt Q9H9Y6 1-1135) (enzyme)”, the binding result is recorded as “binds”. Next, SORL1 (from UniProt Q92673 82-2214): “binds”. Next, TTI1 (from UniProt O43156 1-1089): “binds”; “receptor tyrosine kinase (RTK) ERBB2 (from UniProt P04626 23-1255)”: “binds”. As for RIN1 (from UniProt Q13671 1-783), the binding entry is given as “binds”. For “POLR1A (from UniProt O95602 1-1720) (enzyme)”, the binding entry is “binds”. For the molecule “MST1R (from UniProt Q04912 25-1400) (receptor)”, the binding result is listed as “binds”.

As to “PRKCA (from UniProt P17252 1-672) (enzyme)”, the binding entry is listed as “binds”.

B1: FKBP5 (protein, UniProt Q13451 1-457)
chain: MTTDEGAKNNEESPTATVAEQGEDITSKKDRGVLKIVKRVGNGEETPMIGDKVYVHYKGKLSNGKKFDSSHDRNEPFVFSLGKGQVIKAWDIGVATMKKGEICHLLCKPEYAYGSAGSLPKIPSNATLFFEIELLDFKGEDLFEDGGIIRRTKRKGEGYSNPNEGATVEIHLEGRCGGRMFDCRDVAFTVGEGEDHDIPIGIDKALEKMQREEQCILYLGPRYGFGEAGKPKFGIEPNAELIYEVTLKSFEKAKESWEMDTKEKLEQAAIVKEKGTVYFKGGKYMQAVIQYGKIVSWLEMEYGLSEKESKASESFLLAAFLNLAMCYLKLREYTKAVECCDKALGLDSANEKGLYRRGEAQLLMNEFESAKGDFEKVLEVNPQNKAARLQISMCQKKAKEHNERDRRIYANMFKKFAEQDAKEEANKAMGKKTSEGVTNEKGTDSQAMEEEKPEGHV
Consider B1, for which the binding entry is given as “binds”.

B2: LPCAT4 (enzyme, UniProt Q643R3 1-524)
chain: MSQGSPGDWAPLDPTPGPPASPNPFVHELHLSRLQRVKFCLLGALLAPIRVLLAFIVLFLLWPFAWLQVAGLSEEQLQEPITGWRKTVCHNGVLGLSRLLFFLLGFLRIRVRGQRASRLQAPVLVAAPHSTFFDPIVLLPCDLPKVVSRAENLSVPVIGALLRFNQAILVSRHDPASRRRVVEEVRRRATSGGKWPQVLFFPEGTCSNKKALLKFKPGAFIAGVPVQPVLIRYPNSLDTTSWAWRGPGVLKVLWLTASQPCSIVDVEFLPVYHPSPEESRDPTLYANNVQRVMAQALGIPATECEFVGSLPVIVVGRLKVALEPQLWELGKVLRKAGLSAGYVDAGAEPGRSRMISQEEFARQLQLSDPQTVAGAFGYFQQDTKGLVDFRDVALALAALDGGRSLEELTRLAFELFAEEQAEGPNRLLYKDGFSTILHLLLGSPHPAATALHAELCQAGSSQGLSLCQFQNFSLHDPLYGKLFSTYLRPPHTSRGTSQTPNASSPGNPTALANGTVQAPKQKGD
For B2, the binding result was “binds”.

B3: CEMIP (protein, UniProt Q8WUJ3 31-1361)
chain: TVAAGCPDQSPELQPWNPGHDQDHHVHIGQGKTLLLTSSATVYSIHISEGGKLVIKDHDEPIVLRTRHILIDNGGELHAGSALCPFQGNFTIILYGRADEGIQPDPYYGLKYIGVGKGGALELHGQKKLSWTFLNKTLHPGGMAEGGYFFERSWGHRGVIVHVIDPKSGTVIHSDRFDTYRSKKESERLVQYLNAVPDGRILSVAVNDEGSRNLDDMARKAMTKLGSKHFLHLGFRHPWSFLTVKGNPSSSVEDHIEYHGHRGSAAARVFKLFQTEHGEYFNVSLSSEWVQDVEWTEWFDHDKVSQTKGGEKISDLWKAHPGKICNRPIDIQATTMDGVNLSTEVVYKKGQDYRFACYDRGRACRSYRVRFLCGKPVRPKLTVTIDTNVNSTILNLEDNVQSWKPGDTLVIASTDYSMYQAEEFQVLPCRSCAPNQVKVAGKPMYLHIGEEIDGVDMRAEVGLLSRNIIVMGEMEDKCYPYRNHICNFFDFDTFGGHIKFALGFKAAHLEGTELKHMGQQLVGQYPIHFHLAGDVDERGGYDPPTYIRDLSIHHTFSRCVTVHGSNGLLIKDVVGYNSLGHCFFTEDGPEERNTFDHCLGLLVKSGTLLPSDRDSKMCKMITEDSYPGYIPKPRQDCNAVSTFWMANPNNNLINCAAAGSEETGFWFIFHHVPTGPSVGMYSPGYSEHIPLGKFYNNRAHSNYRAGMIIDNGVKTTEASAKDKRPFLSIISARYSPHQDADPLKPREPAIIRHFIAYKNQDHGAWLRGGDVWLDSCRFADNGIGLTLASGGTFPYDDGSKQEIKNSLFVGESGNVGTEMMDNRIWGPGGLDHSGRTLPIGQNFPIRGIQLYDGPINIQNCTFRKFVALEGRHTSALAFRLNNAWQSCPHNNVTGIAFEDVPITSRVFFGEPGPWFNQLDMDGDKTSVFHDVDGSVSEYPGSYLTKNDNWLVRHPDCINVPDWRGAICSGCYAQMYIQAYKTSNLRMKIIKNDFPSHPLYLEGALTRSTHYQQYQPVVTLQKGYTIHWDQTAPAELAIWLINFNKGDWIRVGLCYPRGTTFSILSDVHNRLLKQTSKTGVFVRTLQMDKVEQSYPGRSHYYWDEDSGLLFLKLKAQNEREKFAFCSMKGCERIKIKALIPKNAGVSDCTATAYPKFTERAVVDVPMPKKLFGSQLKTKDHFLEVKMESSKQHFFHLWNDFAYIEVDGKKYPSSEDGIQVVVIDGNQGRVVSHTSFRNSILQGIPWQLFNYVATIPDNSIVLMASKGRYVSRGPWTRVLEKLGADRGLKLKEQMAFVGFKGSFRPIWVTLDTEDHKAKIFQVVPIPVVKKKKL
As for B3, the binding result is given as “binds”.

B4: PLEKHA5 (protein, UniProt Q9HAU0 1-1116)
chain: MAADLNLEWISLPRSWTYGITRGGRVFFINEEAKSTTWLHPVTGEAVVTGHRRQSTDLPTGWEEAYTFEGARYYINHNERKVTCKHPVTGQPSQDNCIFVVNEQTVATMTSEEKKERPISMINEASNYNVTSDYAVHPMSPVGRTSRASKKVHNFGKRSNSIKRNPNAPVVRRGWLYKQDSTGMKLWKKRWFVLSDLCLFYYRDEKEEGILGSILLPSFQIALLTSEDHINRKYAFKAAHPNMRTYYFCTDTGKEMELWMKAMLDAALVQTEPVKRVDKITSENAPTKETNNIPNHRVLIKPEIQNNQKNKEMSKIEEKKALEAEKYGFQKDGQDRPLTKINSVKLNSLPSEYESGSACPAQTVHYRPINLSSSENKIVNVSLADLRGGNRPNTGPLYTEADRVIQRTNSMQQLEQWIKIQKGRGHEEETRGVISYQTLPRNMPSHRAQIMARYPEGYRTLPRNSKTRPESICSVTPSTHDKTLGPGAEEKRRSMRDDTMWQLYEWQQRQFYNKQSTLPRHSTLSSPKTMVNISDQTMHSIPTSPSHGSIAAYQGYSPQRTYRSEVSSPIQRGDVTIDRRHRAHHPKHVYVPDRRSVPAGLTLQSVSPQSLQGKTLSQDEGRGTLYKYRPEEVDIDAKLSRLCEQDKVVHALEEKLQQLHKEKYTLEQALLSASQEIEMHADNPAAIQTVVLQRDDLQNGLLSTCRELSRATAELERAWREYDKLEYDVTVTRNQMQEQLDHLGEVQTESAGIQRAQIQKELWRIQDVMEGLSKHKQQRGTTEIGMIGSKPFSTVKYKNEGPDYRLYKSEPELTTVAEVDESNGEEKSEPVSEIETSVVKGSHFPVGVVPPRAKSPTPESSTIASYVTLRKTKKMMDLRTERPRSAVEQLCLAESTRPRMTVEEQMERIRRHQQACLREKKKGLNVIGASDQSPLQSPSNLRDNPFRTTQTRRRDDKELDTAIRENDVKPDHETPATEIVQLKETEPQNVDFSKELKKTENISYEMLFEPEPNGVNSVEMMDKERNKDKMPEDVTFSPQDETQTANHKPEEHPEENTKNSVDEQEETVISYESTPEVSRGNQTMAVKSLSPSPESSASPVPSTQPQLTEGSHFMCV
For the molecule B4, the binding result is listed as “binds”.
